According to patent US20220403048A1, “BINDING MOLECULES TO ARGINASE II [ARG2]” (Cancer Research Technology Limited, priority 2019, published 2022):

Tested on: ARG2
Experiment: Immunoprecipitation and Western blotting of ARG2 released into cell conditioned medium of cancer cell lines
Parameters: species or system human; key: ‘+’ indicates presence of ARG2; ‘+++’ indicates high levels of ARG2; ‘+/−’ ARG2 presence could not be unambiguously established; ‘−’ no ARG2 was detected

B1: ARG2 (protein)
chain: VHSVAVIGAPFSQGQKRKGVEHGPAAIREAGLMKRLSSLGCHLKDFGDLSFTPVPKDDLYNNLIVNPRSVGLANQELAEVVSRAVSDGYSCVTLGGDHSLAIGTISGHARHCPDLCVVWVDAHADINTPLTTSSGNLHGQPVSFLLRELQDKVPQLPGFSWIKPCISSASIVYIGLRDVDPPEHFILKNYDIQYFSMRDIDRLGIQKVMERTFDLLIGKRQRPIHLSFDIDAFDPTLAPATGTPVVGGLTYREGMYIAEEIHNTGLLSALDLVEVNPQLATSEEEAKTTANLAVDVIASSFGQTREGGHIVYDQLPTPSSPDESENQARVRI
modifications: left off: small tags and cut ends
CCM of A673 (Sarcoma)
  ARG2 detected by IP-WB: +++
CCM of A2780-ADR (Ovarian)
  ARG2 detected by IP-WB: +
CCM of A2780-Cis (Ovarian)
  ARG2 detected by IP-WB: +++
CCM of A2780-Parental (Ovarian)
  ARG2 detected by IP-WB: +
CCM of AGS (Gastric)
  ARG2 detected by IP-WB: +
CCM of DU145 (Prostate)
  ARG2 detected by IP-WB: −
CCM of DX3 (Skin)
  ARG2 detected by IP-WB: +/−
CCM of HL-60 (Haematopoietic and Lymphoid)
  ARG2 detected by IP-WB: +/−
CCM of HPAF-II (Pancreatic)
  ARG2 detected by IP-WB: +/−
CCM of HT-1080 (Sarcoma)
  ARG2 detected by IP-WB: −
CCM of HuTu-80 (Gastric)
  ARG2 detected by IP-WB: +
CCM of K562 (Haematopoietic and Lymphoid)
  ARG2 detected by IP-WB: −
CCM of KATO-III (Gastric)
  ARG2 detected by IP-WB: +
CCM of KMS11 (Haematopoietic and Lymphoid)
  ARG2 detected by IP-WB: +
CCM of LNCaP (Prostate)
  ARG2 detected by IP-WB: +++
CCM of MDA-MB-231 (Breast)
  ARG2 detected by IP-WB: −
CCM of NCI-N87 (Gastric)
  ARG2 detected by IP-WB: −
CCM of OVCAR-3 (Ovarian)
  ARG2 detected by IP-WB: +/−
CCM of PC3 (Prostate)
  ARG2 detected by IP-WB: −
CCM of PNT2 (normal prostate epithelium)
  ARG2 detected by IP-WB: −
CCM of SKOV-3 (Ovarian)
  ARG2 detected by IP-WB: −
CCM of SNU-1 (Gastric)
  ARG2 detected by IP-WB: −
CCM of SNU-5 (Gastric)
  ARG2 detected by IP-WB: +/−
CCM of SNU-16 (Gastric)
  ARG2 detected by IP-WB: +
CCM of Saos-2 (Sarcoma)
  ARG2 detected by IP-WB: +
CCM of U2-OS (Sarcoma)
  ARG2 detected by IP-WB: −
